In patent publication US6593095:
Results are given in words; binding and its absence hold for the method and conditions named. Some binding calls cover weakened binding; strength is not graded here.

Protein sequences, listed by entry. Tags and fused reporters are not part of them. Lines headed by an entry give the natural chain unless they say otherwise; changes in a name come on top.
UniProt P09167: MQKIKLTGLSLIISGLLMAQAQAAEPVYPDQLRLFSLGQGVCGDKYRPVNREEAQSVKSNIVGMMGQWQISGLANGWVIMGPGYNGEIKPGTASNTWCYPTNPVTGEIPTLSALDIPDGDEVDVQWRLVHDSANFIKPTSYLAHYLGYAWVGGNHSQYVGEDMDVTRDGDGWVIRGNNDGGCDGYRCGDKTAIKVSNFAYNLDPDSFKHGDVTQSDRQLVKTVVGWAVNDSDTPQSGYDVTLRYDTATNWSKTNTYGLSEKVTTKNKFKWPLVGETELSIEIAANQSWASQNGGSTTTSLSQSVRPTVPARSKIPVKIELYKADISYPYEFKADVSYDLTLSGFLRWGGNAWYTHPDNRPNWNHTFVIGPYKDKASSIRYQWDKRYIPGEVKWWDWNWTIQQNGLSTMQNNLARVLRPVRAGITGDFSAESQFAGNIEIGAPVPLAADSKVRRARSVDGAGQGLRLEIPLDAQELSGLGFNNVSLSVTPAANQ

Assays:
[1] = biological target: T1, human Thy-1 expressed in CHO-K1 cells (plasmid pRc-Thy-1) (human) (UniProt P04216); experiment: sandwich Western blotting of CHO cell samples
T1 sequence: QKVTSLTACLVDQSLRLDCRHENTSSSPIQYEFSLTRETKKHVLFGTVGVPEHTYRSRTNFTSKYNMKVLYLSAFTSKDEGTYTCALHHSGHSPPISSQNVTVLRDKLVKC

[2] = biological target: T2, Thy-1, native, of mouse (brain homogenate; AKR1 lymphocytes) (mouse) (UniProt P01831); experiment: sandwich Western blotting of AKR1 cells
T2 sequence: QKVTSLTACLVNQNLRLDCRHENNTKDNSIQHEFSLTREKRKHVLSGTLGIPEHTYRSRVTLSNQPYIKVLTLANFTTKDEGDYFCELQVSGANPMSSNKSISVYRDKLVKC

[3] = biological target: purified Thy-1 (from deoxycholate extracts of pig brain) (pig); experiment: summary of ELISA and sandwich Western blotting
[4] = biological target: T2, Thy-1, native, of mouse (brain homogenate; AKR1 lymphocytes) (mouse); experiment: sandwich Western blotting of mouse brain homogenate
[5] = biological target: purified Thy-1 (from deoxycholate extracts of pig brain) (pig); experiment: ELISA-based assay, purified Thy-1

Measured: binding

proaerolysin (precursor form of aerolysin of Aeromonas hydrophila) (from UniProt P09167 24-481)
binds: [1] | [2] | [3] | [4] | [5]
